From article PMC5500810 come the findings set out here.

Sequences of proteins named here, by UniProt entry; tags and fusion partners are left off. Residues count along the entry.
UniProt P54764, residues 22-203: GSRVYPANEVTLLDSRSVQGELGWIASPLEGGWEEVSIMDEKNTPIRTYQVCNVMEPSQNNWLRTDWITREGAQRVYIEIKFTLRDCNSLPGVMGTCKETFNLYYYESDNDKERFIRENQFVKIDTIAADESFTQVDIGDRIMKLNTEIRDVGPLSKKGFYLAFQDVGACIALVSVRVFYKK
UniProt P20827, residues 19-182: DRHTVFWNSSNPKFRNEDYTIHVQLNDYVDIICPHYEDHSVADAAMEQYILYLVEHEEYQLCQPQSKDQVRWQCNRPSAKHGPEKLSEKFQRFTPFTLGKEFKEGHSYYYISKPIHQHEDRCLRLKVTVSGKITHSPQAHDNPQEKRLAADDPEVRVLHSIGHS
UniProt P52799, residues 28-229: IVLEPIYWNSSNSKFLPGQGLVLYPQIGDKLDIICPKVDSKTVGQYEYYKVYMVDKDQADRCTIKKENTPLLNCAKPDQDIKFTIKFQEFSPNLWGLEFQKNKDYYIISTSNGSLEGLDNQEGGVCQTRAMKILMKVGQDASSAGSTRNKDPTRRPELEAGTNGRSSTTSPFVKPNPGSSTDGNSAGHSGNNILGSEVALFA

For this assay, the target named is EphA4 ligand-binding domain (human, amino acids 22-203) (human) (UniProt P54764). The experiment in a line: AlphaScreen or HTRF; competition: biotinylated EphA4 LBD (10 nM) preincubated 1 h with increasing Nb, then Fc-tagged ephrin (3 or 10 nM); anti-IgG acceptor and streptavidin donor beads; 50 mM Hepes, 100 mM NaCl, 0.1% Triton, 0.1% BSA; room temperature; both purified. Background: Alpha assays give light when donor and acceptor beads are brought close together.

No constants are given. Whether binding was seen depends on the method and setting. Some results given as binding are weak or reduced against the parent protein; the word gives no strength.

With “ephrin-A1 (Fc-tagged; R&D Systems) (from UniProt P20827 19-182) (Fc fusion)”, the binding entry was “binds”.
With “ephrin-B2 (Fc-tagged; R&D Systems) (from UniProt P52799 28-229) (Fc fusion)” the entry was “binds”.
